Data taken from paper PMC12181674.
No constants are given. Whether binding was seen depends on the method and setting. Binding seen in cells or lysates may run through a third protein. Some entries that bind do so weakly or less than the wild type. Where a sequence is shown, tags or fusion partners need not be part of it.

Target: T1, Hrd1-3FLAG (S. cerevisiae) (UniProt Q08109)
T1 sequence: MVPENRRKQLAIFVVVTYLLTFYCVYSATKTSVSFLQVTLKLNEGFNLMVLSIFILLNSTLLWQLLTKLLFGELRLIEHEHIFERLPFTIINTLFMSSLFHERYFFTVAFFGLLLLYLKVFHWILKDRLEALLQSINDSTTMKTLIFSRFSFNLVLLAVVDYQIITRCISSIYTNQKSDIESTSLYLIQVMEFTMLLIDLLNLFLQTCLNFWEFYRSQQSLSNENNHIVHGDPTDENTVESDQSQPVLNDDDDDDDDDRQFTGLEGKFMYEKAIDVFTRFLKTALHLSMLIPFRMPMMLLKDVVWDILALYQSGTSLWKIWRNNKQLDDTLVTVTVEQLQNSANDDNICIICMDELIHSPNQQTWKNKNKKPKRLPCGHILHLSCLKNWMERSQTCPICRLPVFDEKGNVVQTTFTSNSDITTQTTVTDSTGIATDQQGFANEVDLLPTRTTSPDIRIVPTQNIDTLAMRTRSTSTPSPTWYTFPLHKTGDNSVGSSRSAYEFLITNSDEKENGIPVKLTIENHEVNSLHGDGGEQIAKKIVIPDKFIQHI
Assay: co-IP; Hrd1-3FLAG immunoprecipitated with anti-FLAG M2 affinity gel from 1% digitonin-solubilized membrane fractions (20 mM Tris-HCl pH 7.5, 100 mM NaCl, 10% glycerol), 4°C; cells treated with or without 10 mg/ml HU for 1 h at 30°C; Western blotting

B1: Usa1 (protein, UniProt Q03714 1-838)
chain: MSEYLAQTPCKFTIWSSEIDLIRTNLLVNAHPLSTVGRLLQYIHYQIYKQLRAIYQPEEQCTNSEIPHTPLNSINTYFLSYEGRELSATCLLKDITSSSHPDSNHFIRLQLEKRTSPSGSAFDLEYDMEGEFNSMNIQFEINTLSSQRIFNSMEPNLPIGTTLARLEKLALERIKDFEKSAGNLCGIKEDHSVSDLQGFIIKGKQTPMFLNYGSDSDYYKDLNLVDLIGIDFAPAHNSFFTFLFKMNHEQNSHIANDEERFVLEFISDATLSITQMNVKPDTTVKQVKDFICSVYTHSLNLRRNDIKLIYKGQLLHENNFAGNSSKISEYIKEPHEVKVHVQINQEYTESGPGFWNEVFNNPNIFQFMPPDTRSQSPVSFAPTQGRSPAAIRGEERGIPYVTESGNDIVPTDELYRKCIINGDEVVFIPVSELNPQSSYLSVIKGDYGEIKIPISSNDYRINGDNILLSPSAIEQLESALNFKIERPRDSTLLHPSGEHVRAADNTSSANDNNTVENDESAWNRRVVRPLRNSFPLLLVLIRTFYLIGYNSLVPFFIILEFGSFLPWKYIILLSLLFIFRTVWNTQEVWNLWRDYLHLNEIDEVKFSQIKEFINSNSLTLNFYKKCKDTQSAIDLLMIPNLHEQRLSVYSKYDIEYDTNTPDVGQLNLLFIKVLSGEIPKDALDELFKEFFELYETTRNMNTLYPQDSLNELLLMIWKESQKKDINTLPKYRRWFQTLCSQIAEHNVLDVVLRYIIPDPVNDRVITAVIKNFVLFWVTLLPYVKEKLDDIVAQRARDREQPAPSAQQQENEDEALIIPDEEEPTATGAQPHLYIPDED
- binding: binds

B2: Yos9 (protein, UniProt Q99220 22-542)
chain: LLAPIEDPIVSNKYLISYIDEDDWSDRILQNQSVMNSGYIVNMGDDLECFIQNASTQLNDVLEDSNEHSNSEKTALLTKTLNQGVKTIFDKLNERCIFYQAGFWIYEYCPGIEFVQFHGRVNTKTGEIVNRDESLVYRLGKPKANVEEREFELLYDDVGYYISEIIGSGDICDVTGAERMVEIQYVCGGSNSGPSTIQWVRETKICVYEAQVTIPELCNLELLAKNEDQKNASPILCRMPAKSKIGSNSIDLITKYEPIFLGSGIYFLRPFNTDERDKLMVTDNAMSNWDEITETYYQKFGNAINKMLSLRLVSLPNGHILQPGDSCVWLAEVVDMKDRFQTTLSLNILNSQRAEIFFNKTFTFNEDNGNFLSYKIGDHGESTELGQITHSNKADINTAEIRSDEYLINTDNELFLRISKEIAEVKELLNEIVSPHEMEVIFENMRNQPNNDFELALMNKLKSSLNDDNKVEQINNARMDDDESTSHTTRDIGEAGSQTTGNTESEVTNVAAGVFIEHDEL
- binding: binds
